Among all 300,000 compounds or so, about 5,400 (1.8%) were called active. The inconclusive results got no clear call from the source; some entries with a clear call stand among them for comparison. The call rests on the fitted dose curve; tested in HEK293 cells. A potency beside an inconclusive call is a rough fit, not a confirmed value.
assay: qHTS for inhibitors of binding or entry into cells for Marburg Virus; conditions: Marburg virus pseudotyped entry inhibition, cell reporter; activity change, negative = inhibition: at 37.8 µM (top of the series) unless noted
On the % scale 0 is the no-effect control and ±100 the full control effect; potency means the concentration at half of the fitted maximal effect.

| SMILES | activity change, negative = inhibition | Potency |
| --- | --- | --- |
| Cc1ccc2c(c1)C(=O)OC(C(=O)Nc1ncc(Cc3ccccc3)s1)C2 (centres undefined) | inactive: 28.5% [at 46.1 µM] | – |
| COc1cc2c3c(c1)c(C1=NC(=S)NC1=O)c(O)n3C(C)(C)C=C2C | inactive: -18.1% | – |
| c1ccc2oc(C3=NNC(=NC4CC4)SC3)cc2c1 | – | active: 1.83 µM |
| CC(C)CN(C(=O)CCCSc1nc2ccccc2[nH]1)c1c(N)n(Cc2ccccc2)c(=O)[nH]c1=O | inactive: -1.73% | – |
| O=C(COc1ccccc1C(=O)N/N=C\c1ccc(O)c(O)c1)N/N=C/c1ccc(O)c(O)c1 | – | inconclusive: 1 µM [inhibitor, full curve, poor fit] |
| CC1CCN(CCC(=O)Nc2ccc3c(c2)CCC3)CC1 | inactive: -26.2% | – |
| O=C(Nc1ccc(Br)cc1)c1cccc(OC(=S)N2CCOCC2)c1 | – | inconclusive: 35.5 µM [inhibitor, single point] |
| COc1cc2cnncc2cc1OC | inactive: -2.97% | – |
| N#CC(C#N)=Cc1cc2ccccc2nc1N1CCOCC1 | – | inconclusive: 3.98 µM [activator, single point] |
| N=c1c(C(=O)NCc2ccc(F)cc2)cc2c(=O)n3ccccc3nc2n1Cc1ccco1 | – | inconclusive: 1.41 µM [inhibitor, partial curve, poor fit] |
| CCc1nc2ccccc2c(=O)n1NC(=O)c1c(O)c2ccccc2n(CC)c1=O | – | inconclusive: 7.08 µM [inhibitor, single point] |
| COC(=O)[C@](C)(N)Cc1ccc(O)cc1 | inactive: 7.09% | – |
| Cc1[nH]n(C(N)=S)c(=O)c1N=Nc1ccc(S(=O)(=O)N2CCCCCC2)cc1 | inactive: 5.22% | – |
| COc1cc(S(=O)(=O)NC(Cc2c[nH]c3ccccc23)C(=O)O)ccc1NC(C)=O (centres undefined) | inactive: 3.53% [at 46.1 µM] | – |
| COc1ccccc1-c1ccc(SCC(=O)N2CCOCC2)nn1 | – | inconclusive: 6.31 µM [activator, single point] |
| CCN(CC)c1ccc(O)c(C=Nc2ccc(C)c(C)c2)c1 | – | inconclusive: 35.5 µM [activator, single point] |
| CCCCCCCCCCSc1n[nH]c(NC(C)=O)n1 | inactive: -30.9% | – |
| CCC(=O)Nc1ccccc1-c1nc2ccccc2n(C(C)C(=O)Nc2ccc(OC)cc2)c1=O (centres undefined) | inactive: -25.1% [at 46.1 µM] | – |
| O=C(Nc1ccccc1)OCN1C(=O)c2ccccc2C1=O | – | inconclusive: 5.01 µM [activator, partial curve] |
| Cc1cc(Br)ccc1OCC(=O)NNC(=O)c1cnccn1 | inactive: -22.1% | – |
| CC(C)C(=O)Nc1ccc(NC(=O)c2cccc3c(Br)cccc23)cc1 | – | inconclusive: 3.16 µM [inhibitor, single point] |
| Cc1nc(N2CCC(C)CC2)c2c(C)c(C(=O)Nc3ccccc3C(F)(F)F)sc2n1 | – | inconclusive: 20 µM [inhibitor, partial curve, poor fit] |
| Nc1c(N)c2ccccc2oc1=O | inactive: -1.99% | – |
| Cc1cc(C)c(-n2c(C)cc(/C=C3/NC(=O)NC3=O)c2C)c(C)c1 | – | inconclusive: 35.5 µM [inhibitor, single point] |
| CCc1ccc(OCC(=O)Nc2ccc(-c3cc4ccccc4oc3=O)c(OC)c2)cc1 | – | inconclusive: 0.112 µM [inhibitor, full curve, poor fit] |

| SMILES | activity change, negative = inhibition | Potency |
| --- | --- | --- |
| Cc1ccc(C)c(N2CCN(C(=O)c3cc4sccc4n3C)CC2)c1 | – | active: 18.3 µM |
| Cc1cc(C(=O)Nc2cccnc2)cs1 | inactive: 9.67% | – |
| O=[N+]([O-])c1ccc(-c2ccc(/C=N/O)o2)cc1 | – | inconclusive: 6.31 µM [activator, full curve, poor fit] |
| Cc1ccc(S(=O)(=O)Nc2cc(C(C(=O)OC(C)C)C(=O)C(F)(F)F)c(O)c3ccccc23)c(C)c1 (centres undefined) | inactive: 6.65% | – |
| COc1ccc(CCNC(=O)CCc2c(C)c3cc4c(C)coc4cc3oc2=O)cc1 | – | inconclusive: 3.16 µM [activator, single point] |
| N#CC(C#N)=NNc1ccc(S(=O)(=O)N2CCCC2)cc1 | – | inconclusive: 3.55 µM [activator, single point] |
| CC(C)(C)OC(=O)N1CCC[C@H]1c1nnc(SCc2ccc(Cl)cc2)o1 | – | inconclusive: 10 µM [inhibitor, partial curve, poor fit] |
| O=C(CC(=O)c1ccccc1)Nc1ccc2c(c1)OCCO2 | – | inconclusive: 6.31 µM [inhibitor, single point] |
| O=C(Nc1ccc(S(=O)(=O)N2CCCCC2)cc1)c1ccc(CN2CCOCC2)cc1 | – | active: 8.2 µM |
| O=C(CNCc1ccccc1)Nc1ccc(F)cc1 | inactive: -0.997% | – |
| O=C1NC(N2CCOCC2)=N/C1=C/c1ccc2c(c1)OCO2 | inactive: 5.44% | – |
| COc1ccccc1C(=O)Nc1cc(-c2ccc(C)cc2)no1 | – | inconclusive: 7.08 µM [activator, partial curve, poor fit] |
| COc1cc(C(=O)Nc2nnc(Cc3ccccc3)s2)cc(OC)c1OC | – | inconclusive: 11.2 µM [inhibitor, partial curve] |
| Cc1cccc(Nc2nc(N)c([N+](=O)[O-])c(NCc3ccccc3)n2)c1 | – | inconclusive: 17.8 µM [inhibitor, single point] |
| O=C(NC1=NCCS1)c1cc(-c2ccc(F)cc2)nc2ccccc12 | – | inconclusive: 22.4 µM [inhibitor, single point] |
| COc1ccc(/C=N/N2CCN(C)CC2)cc1OC | inactive: 18.3% | – |
| CC1CC(C)CN(C(=O)C2CCN(C(=O)Nc3ccccc3)CC2)C1 (centres undefined) | inactive: -24.6% | – |
| CCOC(=O)Nc1cccc(OCC(=O)Nc2ccccc2OC)c1 | – | inactive |
| COc1ccccc1N1CCN(C(=O)C(NS(=O)(=O)c2cccs2)c2ccccc2)CC1 (centres undefined) | – | inconclusive: 18.3 µM [inhibitor, single point] |
| O=C1C=C(Nc2ccc(Cl)cc2Cl)CC(c2ccco2)C1 (centres undefined) | – | inconclusive: 4.47 µM [inhibitor, full curve] |
| CCOc1ccc(N/C(C)=C\C(=O)c2ccc3c(c2)OCCO3)cc1 | – | inconclusive: 3.98 µM [activator, full curve, poor fit] |
| COc1ccc(C2C(C(=O)Nc3cccc(C)n3)c3ccccc3C(=O)N2C)cc1OC (centres undefined) | – | inconclusive: 0.206 µM [inhibitor, single point] |
| CC(C)Nc1cc(C(C)(C)C)nc2c(-c3ccccc3)cnn12 | inactive: -21.4% | – |
| Cc1ccc(C)c(OCCC(=O)Nc2cccc(S(=O)(=O)N3CCCC3)c2)c1 | – | inconclusive: 11.2 µM [inhibitor, partial curve] |
| CSc1ccn(CCC(=O)O)c(=O)n1 | – | inconclusive: 1.12 µM [activator, single point] |

One compound at a time, as listed above:
COc1cc2cnncc2cc1OC is entered as activity change, negative = inhibition: inactive: -2.97%
Cc1ccc(S(=O)(=O)Nc2cc(C(C(=O)OC(C)C)C(=O)C(F)(F)F)c(O)c3ccccc23)c(C)c1 (centres undefined) is entered as activity change, negative = inhibition: inactive: 6.65%

Grouped by structure, those above with a CF3 group

| SMILES | activity change, negative = inhibition | Potency |
| --- | --- | --- |
| Cc1nc(N2CCC(C)CC2)c2c(C)c(C(=O)Nc3ccccc3C(F)(F)F)sc2n1 | – | inconclusive: 20 µM [inhibitor, partial curve, poor fit] |
| Cc1ccc(S(=O)(=O)Nc2cc(C(C(=O)OC(C)C)C(=O)C(F)(F)F)c(O)c3ccccc23)c(C)c1 (centres undefined) | inactive: 6.65% | – |

Continuation:

| SMILES | activity change, negative = inhibition | Potency |
| --- | --- | --- |
| C=CCNc1nc(N(c2ccccc2)c2ccccc2)nc(-n2ccnc2)n1 | – | inconclusive: 6.51 µM [inhibitor, full curve, poor fit] |
| Cc1cc(C(=O)Nc2sccc2C#N)c2ccccc2n1 | inactive: -3.05% [at 46.1 µM] | – |
| O=C(c1ccc(Cl)s1)N1CCc2ccccc21 | – | inconclusive: 18.3 µM [inhibitor, single point] |
| COc1ccc(-n2c(SC3CCOC3=O)nc3ccccc3c2=O)cc1OC (centres undefined) | inactive: 5.07% | – |
| C/C(=N/NC(=O)c1cccs1)c1c(C)[nH]n(-c2nc3ccccc3s2)c1=O | – | active: 4.61 µM |
| O=C(NCCCn1ccnc1)C(=O)NCc1ccc(Cl)cc1 | inactive: 20% [at 46.1 µM] | – |
| O=C(NNc1cc(Cl)ccc1Cl)c1c(F)cccc1Cl | – | inconclusive: 35.5 µM [inhibitor, single point] |
| COC(=O)c1cccc(S(=O)(=O)N2CCC(NC(=O)Nc3cccc(F)c3)CC2)c1 | inactive: 3.64% | – |
| O=C(CCN1CCN(C/C=C/c2ccccc2)CC1)Nc1ccccc1 | inactive: 1.01% | – |
| O=C(Nc1ccc(F)cc1)Nc1cnccn1 | – | inconclusive: 35.5 µM [activator, single point] |
| COc1cc(NC(=O)C2CC(c3cccc(Br)c3)=NO2)cc(OC)c1OC (centres undefined) | – | inconclusive: 2.82 µM [activator, partial curve] |
| CC1CCN(c2ncccc2C(=O)O)CC1 | inactive: 13.9% | – |
| Cc1ccc(Nc2cc(Cl)nc(N)n2)c([N+](=O)[O-])c1 | inactive: -14.9% [at 46.1 µM] | – |
| CCOC(=O)c1c(N)sc(C(O)(C(F)(F)F)C(F)(F)F)c1-c1ccc(OC)cc1OC | – | inconclusive: 29.1 µM [inhibitor, single point] |
| COc1ccc(NC(=O)CSc2nc3c(c(=O)[nH]2)CN(Cc2ccccc2)CC3)cc1Cl | – | inconclusive: 11.2 µM [inhibitor, partial curve, poor fit] |
| CC(C)c1ccc(NC(=O)C2CCCN(S(=O)(=O)c3cccnc3)C2)cc1 (centres undefined) | – | inconclusive: 35.5 µM [inhibitor, single point] |
| O=C(COc1ccc(Cl)cc1Br)N1CCN(S(=O)(=O)c2ccccc2)CC1 | – | inconclusive: 35.5 µM [inhibitor, single point] |
| COc1ccc(-c2nc(CN3CCC(C(=O)NCCN(CC(C)C)CC(C)C)CC3)c(C)o2)cc1OC | – | inconclusive: 3.16 µM [inhibitor, single point] |
| CSc1ccc(S(=O)(=O)N2CCC(C(=O)Nc3cccnc3)CC2)cc1 | – | inconclusive: 6.31 µM [activator, single point] |
| COc1ccc(C(=O)Nc2nc(N)n(-c3ccccc3)n2)cc1 | inactive: -18.5% | – |
| c1ccc(-c2nc3ccccc3s2)nc1 | – | inconclusive: 10 µM [inhibitor, single point] |
| Cc1ccc(S(=O)(=O)N2CCCC2CNC(=O)C(=O)NCCN2CCOCC2)cc1 (centres undefined) | inactive: -15.1% | – |
| COc1ccc2c(c1)c(CC(=O)Nc1ccccc1OC)c(C)n2C(=O)c1ccc(Cl)cc1 | – | inconclusive: 35.5 µM [inhibitor, partial curve, poor fit] |
| CC(=O)c1cc(-c2ccccc2)n(CC(=O)N2CCC(N3CCCCC3)CC2)c1C | – | inconclusive: 35.5 µM [inhibitor, single point] |

From PubChem BioAssay AID540276 (National Center for Advancing Translational Sciences (NCATS), 2011)
